According to article PMC4227767, “Dye label interference with RNA modification reveals 5-fluorouridine as non-covalent inhibitor”:
Construct, isoform or probe ends are uncertain for at least one entry. For some assays here: Negatives hold for the conditions tested. Where a protein sequence is shown, tags need not be part of it.

Assays:
[1] = target: T1, TruB (tmTruB), tRNA pseudouridine-55 synthase (Thermotoga maritima) (UniProt Q9WZW0); experiment: fluorescence titration (spectral shifts, lifetime/anisotropy); details: average over three titration curves, 200 nM tRNA, text prints 'U55-tRNA', U33-U55 from context; 5-aminohexyl-3-acrylimido-uridine at U33; recombinant protein; label: Cy5 at U33 (internal); letters put together from the description
T1 sequence (looked up, limits assumed): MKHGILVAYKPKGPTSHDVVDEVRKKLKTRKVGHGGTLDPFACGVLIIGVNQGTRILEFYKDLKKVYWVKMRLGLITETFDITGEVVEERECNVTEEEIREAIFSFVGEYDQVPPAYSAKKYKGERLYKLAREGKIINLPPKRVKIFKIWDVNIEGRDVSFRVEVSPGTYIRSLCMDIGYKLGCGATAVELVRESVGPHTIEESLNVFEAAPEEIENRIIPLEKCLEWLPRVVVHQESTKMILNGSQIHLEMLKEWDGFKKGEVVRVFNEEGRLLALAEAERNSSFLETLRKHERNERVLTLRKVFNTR

[2] = target: T1, TruB (tmTruB), tRNA pseudouridine-55 synthase (Thermotoga maritima); experiment: SDS-PAGE gel shift; details: no SDS-stable complex (complex specific for 5FU55), denaturing conditions, binds under native conditions; recombinant protein; letters put together from the description

Sequence	Kd [1] [nM]	binding result [2]
GCGGAUUUAGCUCAGUUGGGAGAGCGCCAGACUGAAGAUCUGGAGGUCCUGUGUUCGAUCCACAGAAUUCGCACCA [U33-U55-tRNA (Cy5 at U33)]	30.7	
GCGGAUUUAGCUCAGUUGGGAGAGCGCCAGACUGAAGAUCUGGAGGUCCUGUGUUCGAUCCACAGAAUUCGCACCA [U55-tRNA (unlabeled transcript)]		no binding
